Results are given in words; binding and its absence hold for the method and conditions named. Binding seen in cells or lysates may run through a third protein. Some entries that bind do so weakly or less than the wild type. Tags and fused reporters may be left off the sequences shown.

Experiment [1] addresses T1, U2AF56 Associated Protein 56 (UAP56a/b), endogenous (Arabidopsis thaliana (endogenous in flowers)) (UniProt Q56XG6).
T1 sequence: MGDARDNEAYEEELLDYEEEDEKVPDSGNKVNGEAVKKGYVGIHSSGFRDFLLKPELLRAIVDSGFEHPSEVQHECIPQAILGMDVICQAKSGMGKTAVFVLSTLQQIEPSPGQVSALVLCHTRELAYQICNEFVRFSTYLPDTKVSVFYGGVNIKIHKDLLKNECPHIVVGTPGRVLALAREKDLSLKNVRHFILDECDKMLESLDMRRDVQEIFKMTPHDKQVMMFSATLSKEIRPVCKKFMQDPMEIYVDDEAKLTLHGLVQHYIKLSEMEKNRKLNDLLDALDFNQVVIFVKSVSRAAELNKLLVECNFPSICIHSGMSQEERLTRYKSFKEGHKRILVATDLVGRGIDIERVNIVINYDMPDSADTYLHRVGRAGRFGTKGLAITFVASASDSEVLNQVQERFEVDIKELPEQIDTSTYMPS
The experiment can be described thus: co-IP; anti-UAP56 serum (1/500 or 1/1000) with Protein G Dynabeads on pDRM2-DRM2-FLAG-HA flower extract in EB150 buffer, 4 °C; DRM2 detected with anti-HA-HRP.

Experiment [2] has as its target T2, GST–UAP56 recombinant protein (Arabidopsis thaliana) (UniProt Q56XG6).
T2 sequence: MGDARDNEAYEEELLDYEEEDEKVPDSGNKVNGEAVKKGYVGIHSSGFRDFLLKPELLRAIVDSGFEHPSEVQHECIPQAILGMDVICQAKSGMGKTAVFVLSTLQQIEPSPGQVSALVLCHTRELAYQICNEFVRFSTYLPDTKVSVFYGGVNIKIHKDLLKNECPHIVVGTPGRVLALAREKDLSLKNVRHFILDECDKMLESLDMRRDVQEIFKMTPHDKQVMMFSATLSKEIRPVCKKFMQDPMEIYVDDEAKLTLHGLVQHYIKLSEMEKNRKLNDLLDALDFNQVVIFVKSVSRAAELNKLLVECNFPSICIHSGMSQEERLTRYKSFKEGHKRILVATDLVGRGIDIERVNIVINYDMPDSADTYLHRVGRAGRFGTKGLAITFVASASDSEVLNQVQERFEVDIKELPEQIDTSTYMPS
As to the kind of experiment: pull-down; 60 µg purified GST–UAP56 immobilised on glutathione Sepharose 4B, EB150 buffer (50 mM Tris/HCl pH 7.5, 150 mM NaCl, 5 mM MgCl2, 0.1% NP40), pDRM2-DRM2-FLAG-HA flower whole-cell extract, 3 h at 4 °C, eluted with 10 mM reduced glutathione, anti-HA blot; only the target purified.

B1: DRM2-FLAG-HA (pDRM2-DRM2-FLAG-HA in drm1drm2) (enzyme, UniProt Q9M548 1-626)
chain: MVIWNNDDDDFLEIDNFQSSPRSSPIHAMQCRVENLAGVAVTTSSLSSPTETTDLVQMGFSDEVFATLFDMGFPVEMISRAIKETGPNVETSVIIDTISKYSSDCEAGSSKSKAIDHFLAMGFDEEKVVKAIQEHGEDNMEAIANALLSCPEAKKLPAAVEEEDGIDWSSSDDDTNYTDMLNSDDEKDPNSNENGSKIRSLVKMGFSELEASLAVERCGENVDIAELTDFLCAAQMAREFSEFYTEHEEQKPRHNIKKRRFESKGEPRSSVDDEPIRLPNPMIGFGVPNEPGLITHRSLPELARGPPFFYYENVALTPKGVWETISRHLFEIPPEFVDSKYFCVAARKRGYIHNLPINNRFQIQPPPKYTIHDAFPLSKRWWPEWDKRTKLNCILTCTGSAQLTNRIRVALEPYNEEPEPPKHVQRYVIDQCKKWNLVWVGKNKAAPLEPDEMESILGFPKNHTRGGGMSRTERFKSLGNSFQVDTVAYHLSVLKPIFPHGINVLSLFTGIGGGEVALHRLQIKMKLVVSVEISKVNRNILKDFWEQTNQTGELIEFSDIQHLTNDTIEGLMEKYGGFDLVIGGSPCNNLAGGNRVSRVGLEGDQSSLFFEYCRILEVVRARMRGS
With B1, the binding result in experiment [1] and in experiment [2] was “binds” each time.

The values above are taken from article PMC6487834.
